Results published in US20160090556A1, “PRODUCTS COMPRISING MALODOR REDUCTION MATERIALS” (The Procter & Gamble Company, priority 2014, published 2016).

Test: Fragrance Fidelity Index (FFI) assigned by perfumers/expert graders on fabric swatches
Design: species or system human; key: FFI grade on reference scale anchored by 0, 1, 2, 3 swatches
Excerpt: Blocker materials suitable for use in consumer products of the present invention are chosen for their ability to decrease malodor, while not interfering with perception of a fragrance. Material selection is done by assigning two indices to a test sample material from two reference scales in order to rank odor strengths. The two reference scales are the Fragrance Fidelity Index (FFI) scale and the Blocker Index (BI) scale. The FFI ranks the ability of the test sample material to impart a perceivable odor which could cause interference when combined with another fragrance and the BI ranks the ability of the test sample material to reduce malodor perception. The two methods for assigning the indices to a test sample on the FFI and the BI reference scales are given below.
The first step in the method for assigning an FFI to the test samples on the FFI reference scale is to create the FFI reference swatches. […] Fabric swatches for this test are white knit polycotton (4 inch×4 inch) swatches from EMC ordered as PC 50/50. The supplier is instructed to strip the swatches first, stripping involves washing twice with a fragrance-free detergent and rinsing three times.
Pipette 13 μL of each of the three solutions into the middle of a clean swatch resulting in about a 1 cm diameter of the solution in the middle of the swatch. This will create a sensory scale of three swatches with three different odor levels based on the concentration of the solution pipetted onto the swatch. After drying for 30 minutes in a vented hood, the swatches are wrapped in aluminum foil to prevent odor contamination to the treated swatch. A clean untreated swatch is also included as the lowest anchor point of reference for odor strength on the FFI scale. The FFI reference scale swatches should be used within 0.5 to 12 hours and discarded after 12 hours. The swatches are used as scale anchor points when graders evaluate a test sample(s) and are assigned a Fragrance Fidelity Index (FFI) as show in Table 7.
The perfumer/expert panel is asked to rank order swatches according to a scale between 0 and 3.
The reference swatches represent the 0, 1, 2, and 3 FFIs on the FFI reference scale, Table 9. The expert grader should familiarize them self with the strength of the odor on the FFI reference swatches by sniffing each one starting at 0 (the lowest odor strength) and ending at 3 (the highest odor strength). This should be done prior to evaluating the test sample material treated swatch.
A clean swatch is treated with 13 μL of a known concentration of a test sample material resulting in an about 1 cm of the solution on the clean swatch. Just like the reference swatches, the test sample material swatch is dried in a vented hood for 30 minutes and then wrapped in aluminum foil to prevent contamination. The test material swatches and the FFI reference swatches should be made within 2 hours of each other. The test material swatch must be used within 0.5 to 12 hours and discarded after 12 hours.
At least two perfumers/expert graders are used to assign an FFI grade to a test sample. The perfumer/expert grader smells the test sample swatch by holding that swatch 1 inch from their nose with their nose centered over the area where the test sample was pipetted on to the fabric and then assigns the test sample an FFI grade using the FFI reference scale anchor swatches as references. […]

[1] = test material at 10 ppm on swatch
[2] = test material at 50 ppm on swatch

| Compound | FFI [1] | FFI [2] |
| --- | --- | --- |
| CCC(=O)OC1CC2C3C=CCC3C1C2(C)C (centres unmarked) [8,8-dimethyl-3a,4,5,6,7,7a-hexahydro-1H-4,7-methanoinden-6-yl propionate] | 0 | 0 |
| CC1(C)CCc2ccc(CCC=O)cc21 | 0 | 0.5 |
| CC1CCC2(C(C)C)CC(C)OC2C1 (centres unmarked) |  | 0.3 |
